Assay results: the supplement of paper PMC10331698
± gives the standard deviation of the averaged measurements. Small differences around the control level are noise.

What was measured:
Assay in all cases: level (log10 ratio to DMSO vehicle control); higher = higher biomarker level / cell amount than vehicle control
[1] = compound: O=C(O)C(F)(F)OC(F)(F)C(F)(F)OC(F)(F)C(F)(F)C(F)(F)C(F)(F)F [Perfluoro-3,6-dioxadecanoic acid]; settings: 2200 nM; in DMSO
Experimental: (§1)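 BioMAP Diversity Plus panel of 12 human primary cell co-culture systems (3C, 4H, LPS, SAg, BT, BF4T, BE3C, CASM3C, HDF3CGF, KF3CT, MyoF, Mphg). Compounds were added 1 h before stimulation and left for 24 h (MyoF 48 h; BT 72 h for soluble read-outs or 6 d for IgG). Biomarkers were read by ELISA, cytotoxicity by SRB, PBMC viability and proliferation by Alamar Blue. Each well value was divided by the mean of 8 DMSO control wells on the same plate and log10 transformed; duplicate blinded samples were tested at 4 concentrations.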

[2] = compound: O=C(O)C(F)(F)C(F)(F)OC(F)(F)F [Perfluoro-3-methoxypropanoic acid]; settings: 2200 nM; in DMSO
Experimental: as §1

[3] = compound: FC(F)C(F)(F)COCC1CO1 [((2,2,3,3-Tetrafluoropropoxy)methyl)oxirane]; settings: 2200 nM; in DMSO
Experimental: as §1

[4] = compound: O=C(O)C(F)(F)C(F)(F)C(F)(F)C(F)(F)C(F)(F)C(F)(F)C(F)(F)C(F)(F)C(F)(F)C(F)(F)F [Perfluoroundecanoic acid]; settings: in DMSO
Experimental: as §1

[5] = compound: OCCC(F)(F)C(F)(F)C(F)(F)C(F)(F)C(F)(F)C(F)(F)C(F)(F)C(F)(F)F [8:2 Fluorotelomer alcohol]; settings: 2200 nM; in DMSO
Experimental: as §1

[6] = compound: OCC(F)(F)C(F)(F)C(F)(F)C(F)(F)C(F)(F)C(F)(F)C(F)(F)C(F)(F)C(F)(F)C(F)(F)C(F)(F)F [11:1 Fluorotelomer alcohol]; settings: in DMSO
Experimental: as §1

[7] = compound: O=C(O)C(F)(F)C(F)(F)C(F)(F)C(F)(F)C(F)(F)C(F)(F)C(F)(F)C(F)F [9-H-Perfluorononanoic acid]; settings: 2200 nM; in DMSO
Experimental: as §1

[8] = compound: O=C(O)C(F)(F)OC(F)(F)C(F)(F)OC(F)(F)C(=O)O [Perfluoro-3,6-dioxaoctane-1,8-dioic acid]; settings: 2200 nM; in DMSO
Experimental: as §1

[9] = compound: O=C(O)C(F)(F)C(F)(F)F [Perfluoropropanoic acid]; settings: 2200 nM; in DMSO
Experimental: as §1

[10] = compound: O=C(O)C(F)(F)C(F)(F)C(F)(F)F [Perfluorobutanoic acid]; settings: 2200 nM; in DMSO
Experimental: as §1

[11] = compound: NC(=O)C(F)(F)C(F)(F)C(F)(F)C(F)(F)C(F)(F)C(F)(F)C(F)(F)F [Perfluorooctanamide]; settings: 2200 nM; in DMSO
Experimental: as §1

[12] = compound: C=CC(=O)OCC(F)(F)C(F)(F)C(F)(F)C(F)(F)COC(=O)C=C [1H,1H,6H,6H-Perfluorohexane-1,6-diol diacrylate]; settings: 2200 nM; in DMSO
Experimental: as §1

[13] = compound: O=P(O)(O)CCC(F)(F)C(F)(F)C(F)(F)C(F)(F)C(F)(F)C(F)(F)C(F)(F)C(F)(F)F [((Perfluorooctyl)ethyl)phosphonic acid]; settings: 2200 nM; in DMSO
Experimental: as §1

[14] = compound: O=C(O)C=CC(F)(C(F)(F)F)C(F)(F)F [3-(Perfluoroisopropyl)-2-propenoic acid]; settings: in DMSO
Experimental: as §1

[15] = compound: FC(F)(F)C(F)(F)C(F)(F)C(F)(F)C(F)(F)C(F)(F)C(F)(F)CCI [1-Iodo-1H,1H,2H,2H-perfluorononane]; settings: in DMSO
Experimental: as §1

[16] = compound: O=S(=O)(Cl)C(F)(F)C(F)(F)C(F)(F)C(F)(F)C(F)(F)C(F)(F)C(F)(F)C(F)(F)F [Perfluoro-1-octanesulfonyl chloride]; settings: 2200 nM; in DMSO
Experimental: as §1

[17] = compound: C=C(C)C(=O)OCC(F)(F)C(F)(F)C(F)(F)F [2,2,3,3,4,4,4-Heptafluorobutyl methacrylate]; settings: 2200 nM; in DMSO
Experimental: as §1

[18] = compound: FC(F)(F)C(F)(F)C(F)(F)C(F)(F)C(F)(F)C(F)(F)C(F)(F)I [1-Iodopentadecafluoroheptane]; settings: in DMSO
Experimental: as §1

Test System | level (log10) [1] | level (log10) [2] | level (log10) [3] | level (log10) ([4]; 740 nM) | level (log10) ([4]; 2200 nM) | level (log10) [5] | level (log10) ([6]; 370 nM) | level (log10) ([6]; 1100 nM) | level (log10) ([6]; 3300 nM) | level (log10) ([6]; 10000 nM) | level (log10) [7] | level (log10) [8] | level (log10) [9] | level (log10) [10] | level (log10) [11] | level (log10) [12] | level (log10) [13] | level (log10) ([14]; 2200 nM) | level (log10) ([14]; 6700 nM) | level (log10) ([14]; 20000 nM) | level (log10) ([14]; 60000 nM) | level (log10) ([15]; 740 nM) | level (log10) ([15]; 2200 nM) | level (log10) ([15]; 6700 nM) | level (log10) ([15]; 20000 nM) | level (log10) [16] | level (log10) [17] | level (log10) ([18]; 740 nM) | level (log10) ([18]; 2200 nM) | level (log10) ([18]; 6700 nM) | level (log10) ([18]; 20000 nM)
HDF3CGF:EGFR | -0.043 ± 0.025 | -0.0095 ± 0.0092 | 0.016 ± 0.0014 | -0.0425 ± 0.056 | -0.044 ± 0.0028 | -0.015 ± 0.11 | 0.0075 ± 0.028 | 0.034 ± 0.024 | 0.044 ± 0.064 | 0.0275 ± 0.083 | 0.0155 ± 0.025 | -0.005 ± 0.021 | 0.008 ± 0.031 | 0.017 ± 0.052 | 0.042 ± 0.0042 | 0.034 ± 0.021 | -0.016 | -0.0085 ± 0.023 | -0.0025 ± 0.005 | 0.0015 ± 0.005 | 0.0265 ± 0.025 | 0.019 ± 0.02 | 0.019 ± 0.02 | 0.016 | 0.0295 ± 0.023 | -0.0505 ± 0.087 | -0.0155 ± 0.083 | 0.005 ± 0.04 | -0.0295 ± 0.022 | 0.011 ± 0.02 | 0.0135 ± 0.042
BF4T:CCL26/Eotaxin-3 | -0.012 ± 0.072 | -0.0235 ± 0.067 | 0.046 ± 0.024 | -0.092 ± 0.031 | -0.127 ± 0.021 | -0.009 ± 0.12 | 0.011 ± 0.013 | -0.012 ± 0.0042 | -0.003 ± 0.011 | -0.0015 ± 0.0078 | -0.022 ± 0.034 | -0.0255 ± 0.0092 | 0.0225 ± 0.019 | 0.0115 ± 0.052 | -0.056 ± 0.16 | -0.003 ± 0.023 | 0.0195 ± 0.081 | 0.0335 ± 0.098 | -0.0085 ± 0.057 | -0.005 ± 0.013 | 0.0165 ± 0.029 | 0.0315 ± 0.011 | 0.026 ± 0.0071 | -0.0075 ± 0.0021 | -0.061 ± 0.0099 | -0.027 ± 0.041 | 0.034 ± 0.075 | 0.025 ± 0.033 | -0.0135 ± 0.018 | -0.04 ± 0.048 | -0.0305 ± 0.042
BF4T:MMP-3 | 0.0195 ± 0.018 | 0.0325 ± 0.043 | 0.0235 ± 0.026 | -0.0455 ± 0.0092 | -0.0335 ± 0.057 | 0.0035 ± 0.029 | 0.003 ± 0.031 | 0.008 ± 0.0014 | 0.009 ± 0.0057 | 0.0435 ± 0.035 | 0.0025 ± 0.021 | 0.01 ± 0.024 | 0.0045 ± 0.0035 | 0.023 ± 0.03 | 0.0115 ± 0.0092 | 0.0125 ± 0.042 | 0.0165 ± 0.0021 | 0.026 ± 0.076 | -0.003 ± 0.014 | -0.0035 ± 0.015 | 0.0205 ± 0.033 | 0 ± 0.0014 | 0.0045 ± 0.013 | 0.0185 ± 0.013 | 0.011 ± 0.0014 | -0.0035 ± 0.018 | -0.001 ± 0.038 | -0.007 ± 0.052 | -0.034 ± 0.028 | -0.0345 ± 0.039 | -0.0315 ± 0.016
SAg:SRB | -0.0145 ± 0.0078 | -0.005 ± 0.02 | -0.004 ± 0.0071 | 0.0045 ± 0.019 | 0.0005 ± 0.00071 | -0.0155 ± 0.005 | -0.0025 ± 0.016 | -0.0415 ± 0.0092 | -0.066 ± 0.0028 | -0.065 ± 0.013 | 0.01 ± 0.0099 | 0.0035 ± 0.015 | -0.017 ± 0.0099 | -0.021 ± 0.0014 | 0.006 ± 0.0099 | 0.0005 ± 0.005 | -0.0115 ± 0.0078 | -0.0035 ± 0.012 | -0.001 ± 0.0042 | -0.007 ± 0.025 | -0.0065 ± 0.028 | 0.011 ± 0.011 | 0.016 ± 0.0028 | 0.0175 ± 0.005 | 0.031 ± 0.017 | -0.002 ± 0.0042 | 0.004 ± 0.0085 | 0.0045 ± 0.0064 | 0.0005 ± 0.0064 | -0.007 ± 0.0042 | 0.0025 ± 0.0021
lMphg:CCL2/MCP-1 | -0.054 ± 0.047 | -0.011 ± 0.016 | -0.038 ± 0.048 | 0.031 ± 0.02 | 0.0355 ± 0.043 | 0.0205 ± 0.0092 | -0.008 ± 0.0071 | 0.0125 ± 0.0078 | 0.0295 ± 0.035 | 0.0535 ± 0.0021 | -0.005 ± 0.027 | -0.011 ± 0.0071 | -0.022 ± 0.03 | 0.005 ± 0.041 | 0.021 | 0.0275 ± 0.053 | -0.0065 ± 0.021 | 0.0055 ± 0.012 | -0.023 ± 0.014 | -0.0275 ± 0.011 | 0.006 ± 0.03 | 0.0075 ± 0.029 | -0.01 ± 0.0042 | -0.014 ± 0.0071 | 0.0385 ± 0.032 | 0.001 ± 0.013 | -0.02 ± 0.0014 | 0.037 ± 0.027 | 0.026 ± 0.0028 | 0.009 ± 0.0085 | 0.018 ± 0.02
KF3CT:MMP-9 | -0.004 ± 0.038 | 0.0015 ± 0.0021 | 0.0155 ± 0.033 | -0.066 ± 0.018 | -0.0335 ± 0.0092 | -0.042 ± 0.011 | -0.029 ± 0.038 | -0.042 ± 0.0099 | -0.071 ± 0.027 | -0.0545 ± 0.026 | -0.028 ± 0.025 | -0.0015 ± 0.0021 | -0.0135 ± 0.032 | 0.01 ± 0.023 | -0.001 ± 0.02 | 0.007 ± 0.045 | 0.0075 ± 0.0078 | 0.006 ± 0.011 | -0.0175 ± 0.016 | 0.006 ± 0.0071 | 0.018 ± 0.014 | 0.0025 ± 0.026 | 0.005 ± 0.0042 | -0.006 ± 0.0042 | 0.0165 ± 0.013 | -0.0155 ± 0.016 | -0.012 ± 0.0028 | -0.04 ± 0.051 | -0.0815 ± 0.087 | -0.05 ± 0.11 | -0.0495 ± 0.056
3C:Proliferation | -0.0875 ± 0.1 | -0.04 ± 0.055 | -0.0455 ± 0.011 | -0.01 ± 0.048 | 0.041 ± 0.013 | -0.044 ± 0.044 | -0.0685 ± 0.081 | -0.189 ± 0.012 | -0.436 ± 0.042 | -0.338 ± 0.051 | -0.015 ± 0.047 | 0.0015 ± 0.08 | -0.0415 ± 0.059 | -0.0065 ± 0.053 | 0.007 ± 0.058 | -0.131 ± 0.071 | -0.0785 ± 0.076 | -0.039 ± 0.086 | -0.0185 ± 0.09 | -0.002 ± 0.037 | -0.0145 ± 0.049 | -0.0365 ± 0.022 | 0.001 ± 0.0028 | -0.019 ± 0.0085 | -0.027 ± 0.0057 | -0.0445 ± 0.063 | -0.012 ± 0.035 | 0.0035 ± 0.032 | 0.009 ± 0.0071 | 0.0035 ± 0.013 | -0.0125 ± 0.0078
